Reference: the supplement of paper PMC11006884
Only a part is listed here, and it is no random draw.

The chains behind the UniProt entries cited, without tags or fusion partners. Where a name states a change or a piece, a line headed by the entry shows the natural chain unless it says otherwise.
UniProt Q92793, whole entry, looked up: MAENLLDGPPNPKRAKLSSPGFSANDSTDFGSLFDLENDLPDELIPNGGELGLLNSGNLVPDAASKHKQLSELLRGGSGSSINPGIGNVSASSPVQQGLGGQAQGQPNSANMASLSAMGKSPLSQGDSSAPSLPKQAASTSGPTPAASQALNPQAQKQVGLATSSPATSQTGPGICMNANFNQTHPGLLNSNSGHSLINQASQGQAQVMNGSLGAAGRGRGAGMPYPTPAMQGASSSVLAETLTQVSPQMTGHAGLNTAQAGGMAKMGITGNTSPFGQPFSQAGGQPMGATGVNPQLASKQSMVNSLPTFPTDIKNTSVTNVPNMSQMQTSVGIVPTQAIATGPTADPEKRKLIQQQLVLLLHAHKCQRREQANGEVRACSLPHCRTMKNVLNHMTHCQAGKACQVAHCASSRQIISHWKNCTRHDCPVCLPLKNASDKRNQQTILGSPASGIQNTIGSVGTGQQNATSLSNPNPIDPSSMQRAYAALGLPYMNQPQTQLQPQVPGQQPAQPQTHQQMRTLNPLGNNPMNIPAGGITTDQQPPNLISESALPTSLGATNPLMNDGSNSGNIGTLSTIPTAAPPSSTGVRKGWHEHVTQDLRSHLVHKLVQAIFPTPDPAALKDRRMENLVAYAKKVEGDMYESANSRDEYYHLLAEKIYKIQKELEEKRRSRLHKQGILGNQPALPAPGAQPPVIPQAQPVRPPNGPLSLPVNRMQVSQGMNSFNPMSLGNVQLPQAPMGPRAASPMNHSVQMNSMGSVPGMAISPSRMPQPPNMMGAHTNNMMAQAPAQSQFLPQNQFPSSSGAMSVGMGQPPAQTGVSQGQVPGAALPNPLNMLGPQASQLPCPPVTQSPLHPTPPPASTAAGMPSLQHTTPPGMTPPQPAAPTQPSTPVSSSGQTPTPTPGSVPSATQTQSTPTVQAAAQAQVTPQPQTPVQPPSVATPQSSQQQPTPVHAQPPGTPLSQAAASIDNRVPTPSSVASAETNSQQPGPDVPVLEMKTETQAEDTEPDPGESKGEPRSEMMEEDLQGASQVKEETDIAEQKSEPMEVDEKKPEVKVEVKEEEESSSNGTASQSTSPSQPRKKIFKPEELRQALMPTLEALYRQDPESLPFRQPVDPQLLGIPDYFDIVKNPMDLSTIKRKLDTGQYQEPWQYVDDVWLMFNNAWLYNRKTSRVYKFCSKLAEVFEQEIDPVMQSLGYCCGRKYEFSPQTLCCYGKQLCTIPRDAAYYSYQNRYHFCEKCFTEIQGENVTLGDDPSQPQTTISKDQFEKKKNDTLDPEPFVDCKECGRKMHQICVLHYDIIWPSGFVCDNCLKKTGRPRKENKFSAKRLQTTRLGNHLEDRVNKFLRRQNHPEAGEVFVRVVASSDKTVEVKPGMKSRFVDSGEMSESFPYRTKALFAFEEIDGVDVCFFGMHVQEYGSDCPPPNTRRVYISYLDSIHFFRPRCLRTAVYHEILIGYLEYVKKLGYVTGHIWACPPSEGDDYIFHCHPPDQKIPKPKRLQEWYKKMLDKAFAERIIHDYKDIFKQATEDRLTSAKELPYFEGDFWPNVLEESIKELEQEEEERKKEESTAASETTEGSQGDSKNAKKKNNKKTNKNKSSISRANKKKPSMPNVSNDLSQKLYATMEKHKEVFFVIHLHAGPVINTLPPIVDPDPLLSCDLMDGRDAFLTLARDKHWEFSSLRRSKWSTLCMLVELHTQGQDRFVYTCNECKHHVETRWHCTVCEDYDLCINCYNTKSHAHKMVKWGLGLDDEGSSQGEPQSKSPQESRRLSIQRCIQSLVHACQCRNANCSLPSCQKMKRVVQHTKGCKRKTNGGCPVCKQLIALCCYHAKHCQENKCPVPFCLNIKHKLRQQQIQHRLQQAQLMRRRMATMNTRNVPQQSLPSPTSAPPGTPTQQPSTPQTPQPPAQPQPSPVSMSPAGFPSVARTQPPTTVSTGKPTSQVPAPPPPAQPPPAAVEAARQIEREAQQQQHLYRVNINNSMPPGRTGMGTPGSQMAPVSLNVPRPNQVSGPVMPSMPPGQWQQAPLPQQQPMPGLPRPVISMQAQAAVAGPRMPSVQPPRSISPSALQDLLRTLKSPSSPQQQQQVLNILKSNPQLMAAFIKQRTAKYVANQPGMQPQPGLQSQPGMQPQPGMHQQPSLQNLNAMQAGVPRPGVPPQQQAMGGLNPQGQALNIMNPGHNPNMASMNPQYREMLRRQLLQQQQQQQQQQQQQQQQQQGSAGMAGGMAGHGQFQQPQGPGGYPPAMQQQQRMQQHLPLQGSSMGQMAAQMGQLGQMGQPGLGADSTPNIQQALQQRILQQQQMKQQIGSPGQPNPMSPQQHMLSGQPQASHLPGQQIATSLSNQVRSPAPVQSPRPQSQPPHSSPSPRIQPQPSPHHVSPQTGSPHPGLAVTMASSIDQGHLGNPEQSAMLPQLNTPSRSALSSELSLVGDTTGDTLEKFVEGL
UniProt Q92616, whole entry, looked up: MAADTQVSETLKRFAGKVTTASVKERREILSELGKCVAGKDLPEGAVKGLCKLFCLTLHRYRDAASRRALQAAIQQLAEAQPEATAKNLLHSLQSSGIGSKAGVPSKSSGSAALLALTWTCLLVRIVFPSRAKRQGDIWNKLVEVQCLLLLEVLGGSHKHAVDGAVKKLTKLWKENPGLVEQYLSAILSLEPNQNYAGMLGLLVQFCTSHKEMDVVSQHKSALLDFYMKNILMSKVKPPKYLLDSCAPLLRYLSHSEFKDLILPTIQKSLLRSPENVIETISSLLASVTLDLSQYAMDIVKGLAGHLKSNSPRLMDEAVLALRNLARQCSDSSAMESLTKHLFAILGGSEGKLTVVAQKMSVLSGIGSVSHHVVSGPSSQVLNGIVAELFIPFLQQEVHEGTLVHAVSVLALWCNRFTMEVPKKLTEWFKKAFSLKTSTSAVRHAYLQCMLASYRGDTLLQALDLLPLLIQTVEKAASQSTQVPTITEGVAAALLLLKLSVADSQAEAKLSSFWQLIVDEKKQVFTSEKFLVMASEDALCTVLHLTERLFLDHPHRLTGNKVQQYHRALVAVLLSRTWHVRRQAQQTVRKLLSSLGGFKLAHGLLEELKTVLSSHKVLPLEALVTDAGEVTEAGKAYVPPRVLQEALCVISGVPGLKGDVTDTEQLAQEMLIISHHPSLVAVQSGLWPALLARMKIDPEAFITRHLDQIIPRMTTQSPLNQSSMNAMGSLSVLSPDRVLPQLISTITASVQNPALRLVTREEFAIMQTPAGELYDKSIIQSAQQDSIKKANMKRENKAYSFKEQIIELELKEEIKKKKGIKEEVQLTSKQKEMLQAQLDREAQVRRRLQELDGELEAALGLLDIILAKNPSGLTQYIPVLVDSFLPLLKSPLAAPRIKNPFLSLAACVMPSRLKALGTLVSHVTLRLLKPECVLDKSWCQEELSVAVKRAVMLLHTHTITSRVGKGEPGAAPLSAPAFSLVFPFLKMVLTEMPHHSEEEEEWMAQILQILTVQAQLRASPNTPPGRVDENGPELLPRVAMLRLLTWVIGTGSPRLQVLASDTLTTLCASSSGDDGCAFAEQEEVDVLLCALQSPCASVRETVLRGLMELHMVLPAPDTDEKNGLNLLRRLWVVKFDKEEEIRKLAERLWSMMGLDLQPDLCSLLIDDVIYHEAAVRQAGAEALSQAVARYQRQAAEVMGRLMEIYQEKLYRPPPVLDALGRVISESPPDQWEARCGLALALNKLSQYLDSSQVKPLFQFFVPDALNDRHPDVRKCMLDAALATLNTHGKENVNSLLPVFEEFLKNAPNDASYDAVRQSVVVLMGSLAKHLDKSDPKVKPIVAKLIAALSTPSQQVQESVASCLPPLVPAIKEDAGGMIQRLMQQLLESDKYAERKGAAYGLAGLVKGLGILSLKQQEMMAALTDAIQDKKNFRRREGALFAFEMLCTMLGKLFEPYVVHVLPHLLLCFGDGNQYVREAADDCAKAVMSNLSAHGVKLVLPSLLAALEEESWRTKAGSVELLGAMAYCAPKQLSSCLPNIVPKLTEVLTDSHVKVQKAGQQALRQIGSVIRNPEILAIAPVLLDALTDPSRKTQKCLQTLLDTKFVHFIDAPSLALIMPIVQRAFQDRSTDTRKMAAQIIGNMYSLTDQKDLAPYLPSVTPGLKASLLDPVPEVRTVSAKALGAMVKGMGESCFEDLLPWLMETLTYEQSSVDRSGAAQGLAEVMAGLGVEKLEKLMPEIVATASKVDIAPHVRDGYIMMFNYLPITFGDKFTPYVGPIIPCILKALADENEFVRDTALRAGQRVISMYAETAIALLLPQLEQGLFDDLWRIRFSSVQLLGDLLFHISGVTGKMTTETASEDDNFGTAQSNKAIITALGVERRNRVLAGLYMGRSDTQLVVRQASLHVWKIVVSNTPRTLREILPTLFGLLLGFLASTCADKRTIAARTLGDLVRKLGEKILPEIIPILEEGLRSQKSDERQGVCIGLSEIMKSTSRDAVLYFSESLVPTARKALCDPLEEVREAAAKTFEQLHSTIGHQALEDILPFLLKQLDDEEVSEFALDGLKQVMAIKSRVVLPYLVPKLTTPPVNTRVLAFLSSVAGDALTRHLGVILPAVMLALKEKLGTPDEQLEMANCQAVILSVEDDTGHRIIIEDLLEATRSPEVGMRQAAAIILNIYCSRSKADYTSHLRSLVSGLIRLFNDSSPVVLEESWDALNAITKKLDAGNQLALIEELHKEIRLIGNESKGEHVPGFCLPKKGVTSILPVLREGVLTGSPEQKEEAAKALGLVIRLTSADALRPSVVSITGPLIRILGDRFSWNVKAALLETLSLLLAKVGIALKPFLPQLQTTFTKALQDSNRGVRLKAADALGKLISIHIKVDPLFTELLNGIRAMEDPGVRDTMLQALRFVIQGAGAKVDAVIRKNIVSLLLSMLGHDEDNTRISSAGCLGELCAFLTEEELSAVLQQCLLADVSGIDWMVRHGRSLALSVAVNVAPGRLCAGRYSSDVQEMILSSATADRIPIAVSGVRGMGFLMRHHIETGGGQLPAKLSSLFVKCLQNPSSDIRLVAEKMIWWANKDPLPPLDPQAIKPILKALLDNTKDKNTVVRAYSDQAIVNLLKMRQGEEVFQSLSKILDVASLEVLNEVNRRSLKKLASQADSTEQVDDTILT
UniProt Q96H20: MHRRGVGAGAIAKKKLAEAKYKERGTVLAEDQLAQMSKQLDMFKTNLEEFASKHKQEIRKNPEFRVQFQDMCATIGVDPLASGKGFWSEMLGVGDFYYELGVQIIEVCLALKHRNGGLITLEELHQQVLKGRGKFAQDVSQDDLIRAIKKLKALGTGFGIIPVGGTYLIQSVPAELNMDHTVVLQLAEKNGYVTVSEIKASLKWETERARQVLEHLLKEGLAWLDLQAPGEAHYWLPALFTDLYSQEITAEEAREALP
UniProt Q96GX9: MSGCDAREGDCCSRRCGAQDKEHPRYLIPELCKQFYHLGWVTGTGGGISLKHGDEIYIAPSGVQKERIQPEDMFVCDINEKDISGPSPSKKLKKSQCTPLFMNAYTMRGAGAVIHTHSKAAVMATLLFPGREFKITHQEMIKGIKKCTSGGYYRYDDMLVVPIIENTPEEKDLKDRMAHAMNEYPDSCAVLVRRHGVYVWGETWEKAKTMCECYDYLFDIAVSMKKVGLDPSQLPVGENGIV
UniProt Q96FW1, whole entry, looked up: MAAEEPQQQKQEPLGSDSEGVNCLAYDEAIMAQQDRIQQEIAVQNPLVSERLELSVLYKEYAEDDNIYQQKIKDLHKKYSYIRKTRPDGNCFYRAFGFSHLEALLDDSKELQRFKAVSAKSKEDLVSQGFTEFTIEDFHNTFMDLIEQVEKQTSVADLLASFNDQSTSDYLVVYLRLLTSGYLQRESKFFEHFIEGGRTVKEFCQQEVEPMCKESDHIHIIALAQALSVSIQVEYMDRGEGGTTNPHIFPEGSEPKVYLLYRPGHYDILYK
UniProt Q96EB1: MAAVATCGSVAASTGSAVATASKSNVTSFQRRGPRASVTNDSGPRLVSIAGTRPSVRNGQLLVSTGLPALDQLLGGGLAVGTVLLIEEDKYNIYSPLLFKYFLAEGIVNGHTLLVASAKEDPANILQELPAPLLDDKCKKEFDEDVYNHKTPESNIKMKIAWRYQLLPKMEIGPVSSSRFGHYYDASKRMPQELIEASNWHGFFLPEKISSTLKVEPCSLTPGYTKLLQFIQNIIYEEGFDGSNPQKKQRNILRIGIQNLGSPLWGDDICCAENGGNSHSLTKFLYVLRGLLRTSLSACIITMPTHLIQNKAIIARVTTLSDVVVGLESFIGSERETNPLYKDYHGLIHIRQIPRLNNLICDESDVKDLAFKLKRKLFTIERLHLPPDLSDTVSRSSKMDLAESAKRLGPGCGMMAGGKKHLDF
UniProt Q96AT9: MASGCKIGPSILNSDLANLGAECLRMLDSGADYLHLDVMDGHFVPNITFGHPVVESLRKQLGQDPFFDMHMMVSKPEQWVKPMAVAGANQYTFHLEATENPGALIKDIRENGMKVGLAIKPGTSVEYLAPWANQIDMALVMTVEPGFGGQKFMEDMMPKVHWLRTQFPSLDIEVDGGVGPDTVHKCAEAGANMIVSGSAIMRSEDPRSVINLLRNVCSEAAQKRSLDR

Compound: COC(=O)C#Cc1ccccc1 [methyl 3-phenylpropiolate]
Experiment: log2 ratio of iodoacetamide-alkyne labeling of the cysteine site, DMSO over compound (competition); higher = stronger covalent engagement of the cysteine by the compound, active = 1 or more
Settings: 500 µM; treatment time 1 h; system: HEK293T cell lysate
Outline: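 Three replicates, each with duplicate channels, were prepared from HEK293T lysate (2 mg/mL) treated with vehicle or electrophile at 500 µM for 1 h at ambient temperature. Iodoacetamide alkyne was then applied for 1 h, and samples were clicked to sCIP-TMT reagents, pooled, trypsin-digested overnight at 37 °C, enriched on streptavidin, acid-eluted and analysed on Orbitrap Eclipse LC-MS/MS with FAIMS, with FragPipe quantification. The log2 competition ratio per cysteine is the mean control-channel divided by the mean compound-channel reporter intensity. Cysteines quantified in only one replicate were left out.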

log2 ratio of iodoacetamide-alkyne labeling, inactive:
USP9X C1566 (UniProt Q93008) 0.163
DVL3 C69 (UniProt Q92997) 0.272
CREBBP C1200 (UniProt Q92793) 0.966
UniProt Q92616_C1482 0.19
DPF2 C53 (UniProt Q92785) 0.433
RAD50 C133 (UniProt Q92878) 0.678
SNF8 C72 (UniProt Q96H20) 0.2
APIP C97 (UniProt Q96GX9) 0.129
OTUB1 C91 (UniProt Q96FW1) 0.103
GBF1 C592 (UniProt Q92538) 0.278
ELP4 C361 (UniProt Q96EB1) 0.228
OTUD5 C434 (UniProt Q96G74) 0.598
RPE C23 (UniProt Q96AT9) 0.341
LPP C364 (UniProt Q93052) 0.161

3 successive records out of the list so far, quoted:
log2 ratio of iodoacetamide-alkyne labeling, inactive:
OTUD5 C434 (UniProt Q96G74) 0.598
RPE C23 (UniProt Q96AT9) 0.341
LPP C364 (UniProt Q93052) 0.161
